Consider 1 substance from US20150105324A1, “COMPOSITIONS AND METHODS FOR TREATING PTSD AND RELATED DISEASES” (INDIANA UNIVERSITY RESEARCH AND TECHNOLOGY CORPORATION, priority 2012, published 2015).

The chains behind the UniProt entries cited, without tags or fusion partners.
UniProt Q9D3A8: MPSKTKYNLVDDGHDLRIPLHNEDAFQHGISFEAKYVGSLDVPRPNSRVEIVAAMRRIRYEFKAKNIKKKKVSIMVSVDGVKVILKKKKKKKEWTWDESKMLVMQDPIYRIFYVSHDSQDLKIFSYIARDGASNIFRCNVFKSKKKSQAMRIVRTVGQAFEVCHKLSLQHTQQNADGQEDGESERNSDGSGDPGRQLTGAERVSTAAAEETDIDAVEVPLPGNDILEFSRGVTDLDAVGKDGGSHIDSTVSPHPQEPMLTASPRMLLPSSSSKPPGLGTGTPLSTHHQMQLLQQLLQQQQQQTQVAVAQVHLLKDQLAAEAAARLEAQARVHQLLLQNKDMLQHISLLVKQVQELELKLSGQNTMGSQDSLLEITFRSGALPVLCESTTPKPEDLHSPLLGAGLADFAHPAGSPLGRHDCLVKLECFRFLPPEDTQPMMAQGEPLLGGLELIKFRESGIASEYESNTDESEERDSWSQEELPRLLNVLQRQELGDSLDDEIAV
UniProt Q9Z0J4: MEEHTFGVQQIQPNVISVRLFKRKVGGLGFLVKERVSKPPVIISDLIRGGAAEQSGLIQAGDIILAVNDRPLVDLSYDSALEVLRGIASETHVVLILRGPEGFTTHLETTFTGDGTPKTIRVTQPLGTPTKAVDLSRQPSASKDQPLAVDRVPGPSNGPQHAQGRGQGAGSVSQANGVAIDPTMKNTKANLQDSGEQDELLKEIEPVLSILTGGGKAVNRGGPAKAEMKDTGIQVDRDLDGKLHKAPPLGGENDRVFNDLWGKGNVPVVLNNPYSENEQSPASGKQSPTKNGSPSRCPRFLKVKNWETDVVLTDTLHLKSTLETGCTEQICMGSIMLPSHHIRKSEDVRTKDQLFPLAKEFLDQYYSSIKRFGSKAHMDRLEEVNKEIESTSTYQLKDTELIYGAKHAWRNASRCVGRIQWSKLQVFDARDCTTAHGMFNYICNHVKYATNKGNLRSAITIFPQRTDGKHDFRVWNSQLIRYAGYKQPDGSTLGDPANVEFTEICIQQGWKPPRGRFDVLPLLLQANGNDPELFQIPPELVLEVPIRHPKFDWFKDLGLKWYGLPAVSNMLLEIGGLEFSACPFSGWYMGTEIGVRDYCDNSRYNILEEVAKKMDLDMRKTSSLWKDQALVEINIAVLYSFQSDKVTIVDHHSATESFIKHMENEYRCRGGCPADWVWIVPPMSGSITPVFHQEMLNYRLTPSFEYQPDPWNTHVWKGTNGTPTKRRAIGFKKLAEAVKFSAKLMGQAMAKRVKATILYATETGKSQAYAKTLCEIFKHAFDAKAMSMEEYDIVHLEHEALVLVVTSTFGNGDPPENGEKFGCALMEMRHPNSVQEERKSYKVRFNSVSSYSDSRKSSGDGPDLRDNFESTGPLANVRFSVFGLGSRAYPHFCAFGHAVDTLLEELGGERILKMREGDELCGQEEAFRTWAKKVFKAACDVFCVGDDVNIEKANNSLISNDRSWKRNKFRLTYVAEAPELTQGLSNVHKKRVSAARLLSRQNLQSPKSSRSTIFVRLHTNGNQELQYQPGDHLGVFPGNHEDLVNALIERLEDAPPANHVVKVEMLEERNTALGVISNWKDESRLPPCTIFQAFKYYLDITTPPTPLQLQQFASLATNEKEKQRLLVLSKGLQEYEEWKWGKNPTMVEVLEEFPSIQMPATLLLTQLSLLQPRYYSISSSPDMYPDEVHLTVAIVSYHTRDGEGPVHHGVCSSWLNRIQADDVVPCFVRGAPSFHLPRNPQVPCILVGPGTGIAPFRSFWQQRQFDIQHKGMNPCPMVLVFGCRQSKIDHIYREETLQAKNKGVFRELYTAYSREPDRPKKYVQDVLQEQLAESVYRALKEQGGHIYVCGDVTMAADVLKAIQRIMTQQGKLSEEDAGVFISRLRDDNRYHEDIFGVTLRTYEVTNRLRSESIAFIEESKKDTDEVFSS

These are yes or no findings as the source states them, for the method shown. Binding seen in cells or lysates may run through a third protein. Some entries that bind do so weakly or less than the wild type.

The assay deals with CAPON (carboxy-terminal PDZ ligand of nNOS), endogenous, mouse ischemic cortex (mouse) (UniProt Q9D3A8). The assay can be described thus: co-immunoprecipitation from ischemic mouse cortex.

On to “nNOS (endogenous, mouse cortex) (from UniProt Q9Z0J4 1-1429) (enzyme)”, for which the binding result is given as “binds”.
